Experimental data reported in patent US6399580B1, “Methods and compositions for stimulating tissue growth and epithelial moisturization” (The Regents of the University of California, priority 1994, dated 2002).

Test system: hairless mouse skin
Assay: Electron microscopy of treated mouse skin
Format: in vivo
Details: BrCBE-treated
Experimental: Hairless mice were treated with BrCBE as described in Example 10. Tissue samples from hairless mouse skin were fixed first in glutaraldehyde and then post-fixed in 0.2% ruthenium tetroxide prior to plastic embedding, ultrathin sectioning, and examination in a Zeiss 10A electron microscope (Hou et al. (1991) J. Invest. Dermatol. 96:215-223).

OC1C(O)C(Br)C2OC2C1O (centres unmarked) [BrCBE, bromoconduritol-B-epoxide]
membrane structures in stratum corneum intercellular spaces (FIG. 16): abnormal (immature) membrane structures
lamellar bodies (FIG. 16D): completely normal
